Record: PubChem BioAssay AID602196 (INSERM, 2012)
In all, the deposit lists about 23,000 reagents; shown is a random part of them. Of all reagents, 455 (2%) got an active call. 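Active includes both protection and sensitisation; some change values fall well beyond the stated -50 to +50 range.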 The numbers tell different reagents against one gene apart. Further read-outs or replicates are left out here. Reagent sequences are not shown. The record does not give: the amount of reagent.

- Assay: 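Genes whose knock-down alters cisplatin killing of lung cancer cells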
- Cell system: human A549 lung cancer cells
- Knock-down reagent: siRNA pair against human genes
- Duration: 48 h transfection before cisplatin; time from cisplatin to read-out not stated
- Conditions: cisplatin at a dose killing half of control-siRNA cells; exact dose and duration not given
- Measurement: 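Cisplatin cell death as a shift from the 50% death seen with control siRNA; siRNAs toxic or growth-blocking alone scored 0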
- Scale: two-siRNA summed score (-2 to +2): higher = both siRNAs protect from cisplatin killing; -2 means both sensitise
- Active means: 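Each siRNA scores 0 if harmful alone by LDH or WST-1, otherwise +1 if it reduces and -1 if it increases cisplatin killing; a gene is active when both siRNAs agree (sum +2 or -2)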
- Calls: active = both siRNAs shift cisplatin killing the same way; inactive = no consistent shift, or siRNA harmful alone

two-siRNA summed score (-2 to +2), by gene knocked down and reagent
HTR3E: #1 -1 inactive
IQCC: #1 0 inactive
IGIP: #1 1 inactive
CSNK1G2: #1 -1 inactive
CATSPER2: #1 0 inactive
VOPP1: #1 0 inactive
MPDU1: #1 0 inactive
NDEL1: #1 0 inactive
NTRK2: #1 0 inactive
NMRK1: #1 0 inactive
PLA2G12A: #1 -1 inactive
ZC3HC1: #1 1 inactive
MBD6: #1 0 inactive
LOC120376: #1 1 inactive
PLK3: #1 1 inactive
TMEM132B: #1 -2 active
CHST9: #1 1 inactive
JPH4: #1 0 inactive
GK5: #1 0 inactive
CHRDL2: #1 0 inactive
LOC390498: #1 1 inactive
SOX7: #1 0 inactive
CCL5: #1 -1 inactive
LOC390146: #1 0 inactive
LOC440776: #1 1 inactive
LOC402521: #1 0 inactive
LOC391001: #1 1 inactive
LOC440599: #1 0 inactive
LINC01854: #1 0 inactive
OSGIN2: #1 1 inactive
SAR1A: #1 0 inactive

3 consecutive reagents already listed:
two-siRNA summed score (-2 to +2), by gene knocked down and reagent
NTRK2: #1 0 inactive
NMRK1: #1 0 inactive
PLA2G12A: #1 -1 inactive

The listing continues:
two-siRNA summed score (-2 to +2), by gene knocked down and reagent
PPP1R3B: #1 0 inactive
HARS1: #1 -1 inactive
TELO2: #1 -1 inactive
FNDC3B: #1 1 inactive
ORM2: #1 0 inactive
SUPT20HL1: #1 0 inactive
LOC253254: #1 0 inactive
GNAL: #1 0 inactive
NFKBIA: #1 0 inactive
METTL16: #1 -1 inactive
ORC4: #1 0 inactive
RPL6P31: #1 0 inactive
TMEM215: #1 0 inactive
NFIB: #1 0 inactive
CAPG: #1 0 inactive
NALCN: #1 0 inactive
ZNF415: #1 0 inactive
TCP10L: #1 0 inactive; #2 0 inactive
OR2A5: #1 0 inactive
LOC390823: #1 0 inactive
ELP1: #1 0 inactive
MRPL51: #1 0 inactive
PPME1: #1 1 inactive
SPATA22: #1 0 inactive
LOC442278: #1 1 inactive
